{"source": "PubChem BioAssay AID652259 – Drosophila RNAi Screening Center | 2013", "aim": "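Knock-downs that push a Wingless-driven reporter up or down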 (primary screen)", "cell system": "Drosophila clone 8 imaginal disc epithelial cells", "knock-down reagent": "long dsRNA against Drosophila genes", "treatment": "pathway stimulated by co-transfected Wingless expression plasmid", "detection": "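Dual luciferase reads per well after Wingless plasmid stimulation: reporter firefly light and Renilla control light; activity is firefly divided by Renilla, a ratio not deposited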", "scale": "firefly reporter light: higher = more Wg reporter light, before normalisation; Renilla control light: higher = more transfected or surviving cells", "rule for the call": "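Strong candidates differ from their plate mean by at least two out of four per-plate statistical tests; weak candidates meet just one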", "meaning of the calls": "active = candidate regulator (raises or lowers reporter); inactive = not a candidate", "note": "The deposit covers about 22,000 reagents; shown is an unselected part of those with a known target gene and a result. Over the whole deposit, 233 (1.1%) were called active. 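Light values are raw, unnormalised plate reads; the ratio scores behind the reporter calls were not deposited.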 Not given: the amount of reagent, the time to read-out, the dose of the treatment."}
{"Gene": "Lip1", "amplicon": "DRSC03364", "firefly reporter light, replicate 1": 2283, "firefly reporter light, replicate 2": 6355, "Renilla control light, replicate 1": 1064, "Renilla control light, replicate 2": 3184, "call": "inactive"}
{"Gene": "Sbf", "amplicon": "DRSC16852", "firefly reporter light, replicate 1": 6087, "Renilla control light, replicate 1": 2577, "call": "inactive"}
{"Gene": "CG15141", "amplicon": "DRSC02441", "firefly reporter light, replicate 1": 10889, "Renilla control light, replicate 1": 3920, "call": "inactive"}
{"Gene": "CG15141", "amplicon": "DRSC02442", "firefly reporter light, replicate 1": 3140, "firefly reporter light, replicate 2": 7776, "Renilla control light, replicate 1": 1248, "Renilla control light, replicate 2": 3744, "call": "inactive"}
{"Gene": "fdl", "amplicon": "DRSC07279", "firefly reporter light, replicate 1": 5916, "Renilla control light, replicate 1": 2153, "call": "inactive"}
{"Gene": "CG10734", "amplicon": "DRSC05998", "firefly reporter light, replicate 1": 6338, "Renilla control light, replicate 1": 2284, "call": "inactive"}
{"Gene": "CG34367", "amplicon": "DRSC02238", "firefly reporter light, replicate 1": 2121, "firefly reporter light, replicate 2": 9152, "Renilla control light, replicate 1": 893, "Renilla control light, replicate 2": 4484, "call": "inactive"}
{"Gene": "CG34367", "amplicon": "DRSC02850", "firefly reporter light, replicate 1": 1840, "firefly reporter light, replicate 2": 8285, "Renilla control light, replicate 1": 736, "Renilla control light, replicate 2": 4128, "call": "inactive"}
{"Gene": "CG43108", "amplicon": "DRSC05654", "firefly reporter light, replicate 1": 29304, "Renilla control light, replicate 1": 18710, "call": "inactive"}
{"Gene": "CG6325", "amplicon": "DRSC16020", "firefly reporter light, replicate 1": 6437, "Renilla control light, replicate 1": 1853, "call": "inactive"}
{"Gene": "Smyd3", "amplicon": "DRSC17744", "firefly reporter light, replicate 1": 26001, "Renilla control light, replicate 1": 12221, "call": "inactive"}
{"Gene": "hdly", "amplicon": "DRSC15849", "firefly reporter light, replicate 1": 15415, "Renilla control light, replicate 1": 3490, "call": "inactive"}
